PubChem BioAssay AID686938 – Drosophila RNAi Screening Center, 2013
Screen: 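Fly genes required for calcium entry once internal stores are emptied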 (primary screen). System: Drosophila S2R+ cells. Reagents: long dsRNA against Drosophila genes, about 0.25 µg dsRNA per well, roughly 10,000 cells. Duration: 5 days of knock-down before the calcium assay. Conditions: thapsigargin (SERCA pump blocker) to empty calcium stores; entry signal taken 4 min after adding it. Measurement: 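Duplicate raw fluo-4 intensities per well from a plate reader, at rest and four minutes after thapsigargin emptied calcium stores; entry-to-rest ratio filled for only some wells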. Reading the numbers: calcium entry signal: higher = stronger calcium signal after store depletion; resting calcium signal: higher = higher resting calcium signal. Call rule: 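Called when the plate z-score of the entry-to-rest ratio, mean of duplicates, falls below −3; wells with low overall dye signal (Fmax z below −2) or more than five off-targets excluded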. Calls: active = strongly reduced calcium entry; inactive = no strong reduction.
The deposit covers about 23,000 reagents; this is an unselected part of those that have a named target and a result. Over the whole deposit, 75 (0.33%) got an active call. 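Raw plate signals without normalisation; calls rest on plate z-scores that were not deposited; ratio present for only 364 wells.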 Names joined by + are all predicted targets of the reagent. Reagent sequences are not shown. Not stated in the record: the dose of the treatment.

gene | dsRNA | calcium entry signal, replicate 1 (fluorescence units) | calcium entry signal, replicate 2 (fluorescence units) | resting calcium signal, replicate 1 (fluorescence units) | resting calcium signal, replicate 2 (fluorescence units) | Outcome
elg1 (enhanced level of genomic instability 1) | DRSC10229 | 3.86e7 | 4.71e7 | 1.80e7 | 3.23e7 | inactive
Ugt303B2 (UDP-glycosyltransferase family 303 member B2) | DRSC14198 | 3.38e7 | 3.28e7 | 1.88e7 | 1.46e7 | inactive
Ugt303B2 (UDP-glycosyltransferase family 303 member B2) | DRSC22864 | 2.02e7 | 3.65e7 | 1.19e7 | 1.61e7 | inactive
scpr-A + scpr-C | DRSC15737 | 3.42e7 | 3.43e7 | 1.68e7 | 1.60e7 | inactive
CG5001 | DRSC00673 | 3.66e7 | 4.95e7 | 1.81e7 | 2.21e7 | inactive
al (aristaless) | DRSC00799 | 4.07e7 | 3.72e7 | 1.95e7 | 1.80e7 | inactive
Su(fu) (Suppressor of fused) | DRSC16871 | 3.35e7 | 4.37e7 | 1.51e7 | 1.90e7 | inactive
Gpdh3 (Glycerol-3-phosphate dehydrogenase 3) | DRSC15325 | 3.61e7 | 4.51e7 | 6.34e7 | 2.18e7 | inactive
Cth (Cystathionine gamma-lyase) | DRSC07422 | 4.30e7 | 4.38e7 | 2.06e7 | 1.98e7 | inactive
Atg10 + CG12822 | DRSC06796 | 2.11e7 | 2.01e7 | 1.09e7 | 1.13e7 | inactive
Cog2 (Component of oligomeric golgi complex 2) | DRSC16987 | 3.34e7 | 4.22e7 | 1.67e7 | 6.27e7 | inactive
CG15425 | DRSC00440 | 2.17e7 | 2.34e7 | 1.14e7 | 1.15e7 | inactive
CG9890 | DRSC04590 | 4.13e7 | 4.72e7 | 2.09e7 | 2.18e7 | inactive
dnt (doughnut on 2) | DRSC03522 | 4.14e7 | – | 2.33e7 | – | inactive
Spt7 | DRSC19997 | 5.16e7 | 4.42e7 | 2.09e7 | 1.93e7 | inactive
ACOX1 (acyl-CoA oxidase 1) | DRSC05941 | 3.44e7 | 3.62e7 | 1.55e7 | 1.77e7 | inactive
CG13972 | DRSC14715 | 2.18e7 | 3.65e7 | 1.31e7 | 1.72e7 | inactive
CG7320 | DRSC10810 | 3.74e7 | 7.08e7 | 1.96e7 | 2.64e7 | inactive
CG1827 | DRSC06719 | 3.48e7 | 3.02e7 | 1.57e7 | 1.49e7 | inactive
Ubqn (Ubiquilin) | DRSC19581 | 2.31e7 | 2.48e7 | 1.22e7 | 1.17e7 | inactive
CG13085 | DRSC02189 | 4.34e7 | 5.22e7 | 2.19e7 | 2.19e7 | inactive
CG8142 | DRSC20086 | 3.34e7 | 3.29e7 | 1.52e7 | 1.53e7 | inactive
CG30002 | DRSC05182 | 3.45e7 | 4.83e7 | 1.67e7 | 2.20e7 | inactive
sano (serrano) | DRSC06165 | 2.58e7 | 2.03e7 | 1.22e7 | 1.00e7 | inactive
Nlg2 (Neuroligin 2) | DRSC00957 | 3.72e7 | 3.57e7 | 1.83e7 | 1.58e7 | inactive
Nlg2 (Neuroligin 2) | DRSC03578 | 3.15e7 | 3.07e7 | 1.52e7 | 1.43e7 | inactive
CG15097 | DRSC06526 | 2.25e7 | 2.34e7 | 1.23e7 | 1.19e7 | inactive

A run of entries from the list above, as a working copy:
gene | dsRNA | calcium entry signal, replicate 1 (fluorescence units) | calcium entry signal, replicate 2 (fluorescence units) | resting calcium signal, replicate 1 (fluorescence units) | resting calcium signal, replicate 2 (fluorescence units) | Outcome
Spt7 | DRSC19997 | 5.16e7 | 4.42e7 | 2.09e7 | 1.93e7 | inactive
ACOX1 (acyl-CoA oxidase 1) | DRSC05941 | 3.44e7 | 3.62e7 | 1.55e7 | 1.77e7 | inactive
CG13972 | DRSC14715 | 2.18e7 | 3.65e7 | 1.31e7 | 1.72e7 | inactive
CG7320 | DRSC10810 | 3.74e7 | 7.08e7 | 1.96e7 | 2.64e7 | inactive
CG1827 | DRSC06719 | 3.48e7 | 3.02e7 | 1.57e7 | 1.49e7 | inactive
Ubqn (Ubiquilin) | DRSC19581 | 2.31e7 | 2.48e7 | 1.22e7 | 1.17e7 | inactive
CG13085 | DRSC02189 | 4.34e7 | 5.22e7 | 2.19e7 | 2.19e7 | inactive
CG8142 | DRSC20086 | 3.34e7 | 3.29e7 | 1.52e7 | 1.53e7 | inactive

The results go on.
gene | dsRNA | calcium entry signal, replicate 1 (fluorescence units) | calcium entry signal, replicate 2 (fluorescence units) | resting calcium signal, replicate 1 (fluorescence units) | resting calcium signal, replicate 2 (fluorescence units) | Outcome
Aef1 (Adult enhancer factor 1) | DRSC11605 | 2.42e7 | 3.79e7 | 1.21e7 | 1.61e7 | inactive
CG14613 | DRSC20625 | 2.90e7 | 3.53e7 | 1.55e7 | 1.60e7 | inactive
CG11406 | DRSC04010 | 2.55e7 | 4.04e7 | 1.33e7 | 1.72e7 | inactive
CG11406 | DRSC04108 | 3.39e7 | 3.68e7 | 1.73e7 | 1.73e7 | inactive
CG33303 | DRSC02848 | 3.04e7 | 4.98e7 | 1.68e7 | 2.19e7 | inactive
CG3961 | DRSC10390 | 3.95e7 | 4.62e7 | 1.77e7 | 3.09e7 | inactive
CG3961 | DRSC10391 | 3.14e7 | 5.32e7 | 1.62e7 | 1.93e7 | inactive
RhoGAP71E (Rho GTPase activating protein at 71E) | DRSC10232 | 4.90e7 | 5.73e7 | 1.97e7 | 3.72e7 | inactive
RhoGAP71E (Rho GTPase activating protein at 71E) | DRSC10837 | 3.45e7 | 2.92e7 | 1.50e7 | 1.26e7 | inactive
RhoGAP71E (Rho GTPase activating protein at 71E) | DRSC10838 | 3.40e7 | 3.78e7 | 1.59e7 | 1.45e7 | inactive
Ccdc85 | DRSC00501 | 1.34e7 | 1.90e7 | 8.85e6 | 1.18e7 | inactive
Ccdc85 | DRSC23173 | 5.73e7 | 2.62e7 | 2.76e7 | 1.21e7 | inactive
CG32532 | DRSC19556 | 3.23e7 | 4.11e7 | 1.97e7 | 1.90e7 | inactive
CG32532 | DRSC19557 | 4.19e7 | 5.29e7 | 2.22e7 | 2.35e7 | inactive
CG32532 | DRSC19558 | 3.21e7 | 4.28e7 | 1.96e7 | 1.99e7 | inactive
CG32532 | DRSC21370 | 3.66e7 | 3.61e7 | 2.07e7 | 1.67e7 | inactive
CG18537 | DRSC06764 | 4.80e7 | 6.58e7 | 2.06e7 | 3.07e7 | inactive
St1 (Sulfotransferase 1) | DRSC04504 | 3.66e7 | – | 2.04e7 | – | inactive
CG17562 | DRSC15243 | 2.34e7 | 2.23e7 | 1.21e7 | 3.70e7 | inactive
CG5246 | DRSC15751 | 3.11e7 | 6.44e7 | 1.55e7 | 6.47e7 | inactive
Galphaf (G protein alpha subunit f) | DRSC11171 | 3.92e7 | 8.17e7 | 2.05e7 | 2.84e7 | inactive
ppk5 (pickpocket 5) | DRSC11492 | 3.59e7 | 3.41e7 | 1.78e7 | 1.60e7 | inactive
RapGAP1 (Rap GTPase activating protein 1) | DRSC02293 | 3.44e7 | 4.86e7 | 1.67e7 | 2.10e7 | inactive
RapGAP1 (Rap GTPase activating protein 1) | DRSC02294 | 3.59e7 | 3.95e7 | 1.71e7 | 1.69e7 | inactive
RapGAP1 (Rap GTPase activating protein 1) | DRSC02295 | 3.36e7 | 3.42e7 | 1.81e7 | 1.69e7 | inactive
RapGAP1 (Rap GTPase activating protein 1) | DRSC03406 | 4.48e7 | – | 2.44e7 | – | inactive
CG1552 | DRSC19665 | 4.12e7 | 5.22e7 | 1.90e7 | 2.46e7 | inactive
CG31031 (retired record) | DRSC13964 | 3.95e7 | 3.53e7 | 1.93e7 | 1.90e7 | inactive
Gr98b (Gustatory receptor 98b) | DRSC21675 | 4.05e7 | 3.83e7 | 2.29e7 | 1.76e7 | inactive
CG9717 | DRSC16543 | 4.69e7 | 4.45e7 | 2.33e7 | 1.87e7 | inactive
Parp16 (Poly(ADP-ribose) polymerase 16) | DRSC06597 | 4.81e7 | 5.92e7 | 2.25e7 | 2.65e7 | inactive
